Construct, isoform or probe ends are uncertain for at least one entry. For some of these results: No signal at the amounts used counts as a negative. For some of these results: Where a protein sequence is shown, tags need not be part of it.
Legend:
Assay in all cases: filter binding
[1] = target: T1, ScThg1 (Saccharomyces cerevisiae) (UniProt P53215); conditions: 10 mM Mg2+, linear non-specific binding; 5'-triphosphate
T1 sequence (looked up, limits assumed): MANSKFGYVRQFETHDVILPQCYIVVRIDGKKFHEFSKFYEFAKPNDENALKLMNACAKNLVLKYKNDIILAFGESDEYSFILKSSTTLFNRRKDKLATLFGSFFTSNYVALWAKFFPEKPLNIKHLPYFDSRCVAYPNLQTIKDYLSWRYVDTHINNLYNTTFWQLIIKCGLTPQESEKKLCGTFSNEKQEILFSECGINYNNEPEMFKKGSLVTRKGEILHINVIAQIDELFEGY

[2] = tested on: DdiTLP4 (Dictyostelium discoideum); conditions: 10 mM Mg2+, no detectable binding up to 10 uM; 5'-triphosphate
[3] = tested on: MsTLP (Methanobrevibacter smithii); conditions: 10 mM Mg2+, no detectable binding up to 10 uM; 5'-triphosphate
[4] = tested on: BtTLP (Bacillus thuringiensis); conditions: 10 mM Mg2+, no detectable binding up to 10 uM; 5'-triphosphate

Q: Which Kd [1] does the source give for “GGGAGACCACAACGGUUUCCCUCUAG [26-mer RNA substrate]” here?
A: Its Kd is > 10 µM.

Q: Does “GGGAGACCACAACGGUUUCCCUCUAG [26-mer RNA substrate]” bind [2]?
A: Result: no binding

Q: Does “GGGAGACCACAACGGUUUCCCUCUAG [26-mer RNA substrate]” bind [3]?
A: Result: no binding

Q: Does “GGGAGACCACAACGGUUUCCCUCUAG [26-mer RNA substrate]” bind [4]?
A: Result: no binding

Source: paper doi:10.1101/2024.02.24.581873
